Source: paper PMC12040169 (PLOS Biology, 2025)
The other results are listed elsewhere or left out.

These compounds were tested on T1, CTL2-GFP (C. trachomatis L2/434/Bu, GFP-expressing). Details: bulk GFP, single well; 28.5 h, 10 µM; inhibitor.
T1 construct: L2/434/Bu, GFP-expressing
Parameters: species or system HeLa; Intracellular C. trachomatis growth in HeLa cells, bulk GFP fluorescence relative to DMSO

Compound | % of control remaining
Cc1ccc(-c2nnc(CNC(=O)Cc3ccccc3F)o2)s1 [CBK284644] | 136.347%
Cn1cnnc1CCC(=O)NCC1CCN(c2ccccc2F)C1 (stereo not shown) [CBK307587] | 164.033%
COc1cccc(CCNC(=O)CCN2C(=O)CCC2=O)c1 [CBK023150] | 136.339%
Cc1nc(S(=O)(=O)CC2CCCO2)n(CC(C)C)c1C (stereo not shown) [CBK304882] | 86.2508%
CCc1nc2c(OCCOC)cccn2c1N(CCOC)C(C)=O [CBK147845] | 149.015%
CCc1nc2cc(NC(=O)c3cc(C4CC4)nn3C)ccc2n1C [CBK283275] | 122.5%
CC1=NN(C(=O)CSCc2ccccc2)C(O)(c2ccc(Cl)cc2)C1 (stereo not shown) [CBK267136] | 133.915%
O=C(Nc1ccccn1)c1nccnc1-c1ccc(COc2ccccc2)cc1 [CBK050835] | 132.676%
O=C1NC2=C(C(=O)N(CCN3CCCC3)C2)C(c2cccc(F)c2)N1 (stereo not shown) [CBK282365] | 93.896%
O=C(Nc1ccccc1N1CCNCC1)c1cccs1 [CBK029443T] | 115.59%
Cc1ccc(S(=O)(=O)Cc2ccc(C(=O)Nc3cccc(-c4cnc5ccccc5n4)c3)cc2)cc1 [CBK268589] | 147.783%
Cn1nc(C2CCN(C(=O)c3cccc(F)c3)CC2)c2cccnc21 [CBK284898] | 140.84%
Cc1ccc2c(c1)C(C[C@H]1CN(C(=O)c3ccco3)CC[C@H]1CC(=O)O)=NCC2 [CBK289162] | 139.915%
c1ccc(-c2nc(N3CCOCC3)n3ccccc23)cc1 [CBK014407] | 139.005%
Cc1csc(C(Cc2ccsc2)NC(=O)C2CC3C=CC2O3)n1 (stereo not shown) [CBK285108] | 110.469%
COC(=O)CC(NC(=O)c1cccc(NC(C)=O)c1)c1cccs1 (stereo not shown) [CBK304537] | 135.123%
C=Cn1cc(CN2CCCN(Cc3cccc(F)c3)CC2)c(C)n1 [CBK282594] | 111.842%
O=C(Nc1cc(Cl)ccc1Cl)C1CN(S(=O)(=O)c2ccccc2)CCN1S(=O)(=O)c1ccccc1 (stereo not shown) [CBK267004] | 115.794%
COc1cc(CN2CCC[C@@H]2CN2CCCC2)cc(OC)c1OC [CBK149100] | 122.769%
CC(=O)Nc1ccc(S(=O)(=O)N(c2ccc(C(C)(C)C)cc2)C2CCNCC2)cc1 [CBK165062T] | 100%
N#CCCCN1CCC(Oc2nccnc2OCc2ccc(Cl)cc2Cl)CC1 [CBK161568] | 108.62%
Cc1cc(C)c(CNC(=O)N(C)C(C)c2ccncn2)cn1 (stereo not shown) [CBK307192] | 124.081%
O=c1c2c3c(sc2ncn1CC(O)CO)CCCC3 (stereo not shown) [CBK269448] | 120.728%
CC1CCN(Cc2c(-c3cccnc3)[nH]c3cccnc23)CC1 [CBK281494] | 135.387%
CC1(C)CC(=O)c2sc(NC(=O)c3cccc(N4C(=O)CCC4=O)c3)nc2C1 [CBK287565] | 91.7651%
Cn1cc(CC(=O)NCc2ccccc2)c2ccccc21 [CBK200200] | 109.246%
CN1C(=O)COc2ccccc2CCCC[C@@H]2[C@H]1CCCN2CC(N)=O [CBK292098] | 116.695%

Quoted from the listing.
% of control remaining, c1ccc(-c2nc(N3CCOCC3)n3ccccc23)cc1 [CBK014407] reads 139.005%
% of control remaining, Cc1ccc(S(=O)(=O)Cc2ccc(C(=O)Nc3cccc(-c4cnc5ccccc5n4)c3)cc2)cc1 [CBK268589] reads 147.783%
% of control remaining, COc1cccc(CCNC(=O)CCN2C(=O)CCC2=O)c1 [CBK023150] reads 136.339%

(next part)

Compound | % of control remaining
Cc1cc2c(cc1C)C(=O)CC1(CCN(C(=O)c3ccco3)CC1)O2 [CBK282819] | 117.717%
O=C1CC(C(=O)Nc2ncccn2)C(c2ccccc2)O1 (stereo not shown) [CBK265130] | 109.014%
C=Cn1ncc(CN(CCCN(C)C)Cc2ccco2)c1C [CBK283228] | 126.527%
COC(=O)c1cc(C(=O)CSc2nc(N)cc(O)n2)ccc1O [CBK110407] | 97.7072%
CS(=O)(=O)N1CC2(CCN(CC(N)=O)CC2)c2ccccc21 [CBK126678] | 120.769%
N/C(Cc1ccc(Cl)cc1Cl)=N\OC(=O)c1cccc([N+](=O)[O-])c1 [CBK264317] | 122.762%
c1ccc(CCN2CCC(n3cnc4cccnc43)CC2)cc1 [CBK283581] | 135.319%
CCC(CO)Nc1cncc(-c2cccc(/C=C/C(=O)O)c2)n1 (stereo not shown) [CBK065569] | 90.3583%
O=C(Nc1ccc(N2CCNCC2)nc1)C1(c2ccccc2)CCCCC1 [CBK028269T] | 130.112%
Cc1ccc2nsnc2c1NC(=O)COc1ccccc1F [CBK269420] | 128.146%
COc1ccc(-c2noc([C@@H]3Cc4[nH]cnc4CN3C(=O)Nc3ccc(C)cc3)n2)cc1 [CBK288968] | 99.6027%
COc1cc(CN2CCN(Cc3ccncc3)CC2)cc(OC)c1O [CBK263401] | 121.515%
O=C(Cc1c[nH]cn1)N1CCN(c2ncccn2)CC1 [CBK144527] | 126.979%
O=C1CSC2(C(=O)Nc3ccc(Br)cc32)N1c1cccc([N+](=O)[O-])c1 (stereo not shown) [CBK093451] | 89.3268%
COc1ccc(Nc2ccc(-c3ccc4ccccc4c3)cn2)cn1 [CBK037744] | 126.242%
NC(=O)CN1CCC(Oc2nccnc2OCC2COc3ccccc3O2)CC1 (stereo not shown) [CBK082987T] | 137.039%
COc1cccc(C(=O)Oc2ccc3c(=O)c(-c4nc5ccccc5s4)c(C)oc3c2)c1 [CBK265540] | 136.456%
COc1ccc(-c2cc(C(=O)N3CCN(C(C)=O)CC3)cnc2-c2ccc(Cl)cc2)cc1 [CBK037577] | 123.883%
Cn1c(=O)c2c(nc(NCCO)n2CCc2ccccc2)n(C)c1=O [CBK267497] | 119.279%
CC(=O)Nc1c(C)ccc(S(=O)(=O)N2CCOCC2)c1C [CBK034327] | 130.712%
Nc1nn2c(-c3cccc(Cl)c3)nnc2s1 [CBK288122] | 154.384%
Clc1nc2ccccc2nc1N1CCNCC1 [CBK003880] | 111.827%
CCOCCCNc1nc2c(c(=O)[nH]c(=O)n2C)n1CCC(C)C [CBK287968] | 155.206%
Cc1ncc([N+](=O)[O-])n1CC(=O)NC1CCCCCC1 [CBK269194] | 147.229%
COc1ccccc1-c1nccnc1OCc1cccs1 [CBK106819] | 106.406%
CC(C)(C)NC(=O)Cn1cncc1-c1cnn(-c2ccccc2)c1 [CBK281697] | 80.8023%
COC(=O)c1cccn2cc(CN3CCOC4CCCCC43)nc12 (stereo not shown) [CBK304949] | 106.939%

Compound | % of control remaining
O=c1[nH]c(/C=C/c2cc(Br)ccc2OCc2cccc3ccccc23)c([N+](=O)[O-])c(=O)[nH]1 [CBK268052] | 92.8343%
O=C(NCCN1CCOCC1)N(c1ccccc1)c1ccccc1 [CBK270057] | 115.346%
Fc1cc(Br)ccc1-c1cn(-c2ccc3[nH]ccc3c2)nn1 [CBK113146] | 101.712%
CC(C)(C)c1ccc(S(=O)(=O)N2CCCC[C@H]2COC(=O)c2nccnc2C(=O)O)cc1 [CBK200065] | 128.192%
Cc1ccc2[nH]c(Cc3ccc(NC(=O)CCc4nc5ccccc5[nH]4)cc3)nc2c1 [CBK285801] | 140.131%
Cn1cc(CC2CCN(Cc3ccc(Oc4cnccn4)cc3)C2)cn1 (stereo not shown) [CBK304188] | 111.93%
N[C@H](CSCc1ccccc1)C(=O)Nc1ccc([N+](=O)[O-])cc1 [CBK074824] | 99.4071%
CSCCCNC(=O)c1ccc2[nH]ccc2c1 [CBK149056] | 126.206%
CS(=O)(=O)c1ccc(-c2cccc(COC3CCN(C(=O)Cc4ccc(Cl)cc4)CC3)c2)cc1 [CBK149504] | 76.2282%
CC(C)(C)NC(=O)Cn1ccc2ccnc(-c3cccs3)c21 [CBK284737] | 184.068%
CC(=O)Nc1n[nH]c(SCCc2ccccc2)n1 [CBK262514] | 100%
CCC(C)NC(=O)Cn1cccc2cc(C3CCNCC3)nc1-2 (stereo not shown) [CBK284681] | 116.207%
CC(C)(O)C1(C)OC(NC2C3CC4CC(C3)CC2C4)=NC1=O (stereo not shown) [CBK126370] | 97.4331%
CC(C)CN1CCC(C(=O)NC(c2ccc(Cl)cc2)c2cnccn2)CC1 (stereo not shown) [CBK148026] | 124.072%
O=C(Nc1nc(-c2ccncc2)cs1)c1sc2ccccc2c1Cl [CBK287562] | 128.109%
COc1cc(Cl)cc(C2NC(=S)NC(c3ccccc3)=C2C(C)=O)c1OCC(=O)O (stereo not shown) [CBK268801] | 143.575%
O=C(CSc1nn2cnnc2s1)Nc1ccc(I)cc1 [CBK268913] | 111.923%
N#Cc1ccccc1NC(=O)CSc1cnn[nH]1 [CBK269795] | 122.887%
Cc1ccc(N2CCCn3c2nc2c3c(=O)n(CC(=O)O)c(=O)n2C)cc1 [CBK286740] | 115.252%
CCc1nnc(NC(=O)CCc2ccccc2)s1 [CBK057943] | 114.214%
COc1ccc2nc(NC(=O)c3cnc(-c4ccc(Cl)cc4)c(-c4cccnc4)c3)sc2c1 [CBK037576] | 165.964%
CCOC(=O)c1sc(NS(=O)(=O)c2ccc(Cl)c(Cl)c2)nc1C [CBK077228] | 102.371%
COC(=O)Cc1ccc(NC(=S)N2CCC(C(N)=O)(N3CCCCC3)CC2)cc1 [CBK266101] | 107.644%
COCCN1C(=O)C2(CC(=O)N(CCOc3ccccc3)C2=O)c2ccccc21 (stereo not shown) [CBK075322] | 111.385%
Cc1ccc(S(=O)(=O)NCCN2CCN(S(=O)(=O)c3ccc(C)cc3)CC2)cc1 [CBK265461] | 133.449%
